Laboratory results taken from PMC4751440.
No constants are given. Whether binding was seen depends on the method and setting. In cells and extracts the contact can be indirect. Some binding calls cover weakened binding; strength is not graded here. Sequences can lack the tags named with a protein.

Protein sequences, listed by entry. Tags and fused reporters are not part of them. Lines headed by an entry give the natural chain unless they say otherwise; changes in a name come on top. Chains listed by the source or under a name are the forms on record and can include a tag or linker.
FLAG-tagged JNK1 (pcDNA3 FLAG JNK1a1) (P45983, form named): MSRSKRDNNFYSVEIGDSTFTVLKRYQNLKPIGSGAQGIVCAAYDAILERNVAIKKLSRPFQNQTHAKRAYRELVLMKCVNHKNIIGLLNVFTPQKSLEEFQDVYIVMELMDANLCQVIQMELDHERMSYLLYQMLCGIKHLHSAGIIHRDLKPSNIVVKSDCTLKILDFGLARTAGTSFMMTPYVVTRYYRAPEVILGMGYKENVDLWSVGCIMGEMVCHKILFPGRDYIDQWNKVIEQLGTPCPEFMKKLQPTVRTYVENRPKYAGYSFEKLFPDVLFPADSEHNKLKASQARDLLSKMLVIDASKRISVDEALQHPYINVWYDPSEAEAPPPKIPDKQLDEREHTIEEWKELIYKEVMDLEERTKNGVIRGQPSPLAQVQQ

Tests used:
[1] = target: FLAG-tagged JNK1 (pcDNA3 FLAG JNK1a1) (UniProt P45983); experiment: co-IP; HEK293 cells co-transfected with p66Shc-HA-His and FLAG-JNK1a1 or FLAG-JNK2a2; NP-40 lysis buffer; immunoprecipitation 3 h with anti-FLAG M2 affinity gel; p66Shc detected with anti-HA; cells untreated or stressed with H2O2 (1 mM, 15 min) or hypoxia 8 h
[2] = target: FLAG-tagged JNK2 (pcDNA3 FLAG JNK2a2) (UniProt P45984); experiment: as above

- binding [1]: binds
- binding [2]: binds
B1: HA-tagged p66Shc (pRec_p66Shc-HA-His) (protein, UniProt P29353-1 1-583)
chain: MDLLPPKPKYNPLRNESLSSLEEGASGSTPPEELPSPSASSLGPILPPLPGDDSPTTLCSFFPRMSNLRLANPAGGRPGSKGEPGRAADDGEGIVGAAMPDSGPLPLLQDMNKLSGGGGRRTRVEGGQLGGEEWTRHGSFVNKPTRGWLHPNDKVMGPGVSYLVRYMGCVEVLQSMRALDFNTRTQVTREAISLVCEAVPGAKGATRRRKPCSRPLSSILGRSNLKFAGMPITLTVSTSSLNLMAADCKQIIANHHMQSISFASGGDPDTAEYVAYVAKDPVNQRACHILECPEGLAQDVISTIGQAFELRFKQYLRNPPKLVTPHDRMAGFDGSAWDEEEEEPPDHQYYNDFPGKEPPLGGVVDMRLREGAAPGAARPTAPNAQTPSHLGATLPVGQPVGGDPEVRKQMPPPPPCPGRELFDDPSYVNVQNLDKARQAVGGAGPPNPAINGSAPRDLFDMKPFEDALRVPPPPQSVSMAEQLRGEPWFHGKLSRREAEALLQLNGDFLVRESTTTPGQYVLTGLQSGQPKHLLLVDPEGVVRTKDHRFESVSHLISYHMDNHLPIISAGSELCLQQPVERKL
